From patent publication US10442808B2, “Pyrazolo pyrimidine derivatives and their use as MALT1 inhbitors” (NOVARTIS AG, priority 2014, dated 2019)
For at least one compound, name, drawing or mass did not settle the structure.

Amino acid sequences for entries named in this document (tags omitted). Residues count along the entry.
UniProt Q9UDY8, 329-824: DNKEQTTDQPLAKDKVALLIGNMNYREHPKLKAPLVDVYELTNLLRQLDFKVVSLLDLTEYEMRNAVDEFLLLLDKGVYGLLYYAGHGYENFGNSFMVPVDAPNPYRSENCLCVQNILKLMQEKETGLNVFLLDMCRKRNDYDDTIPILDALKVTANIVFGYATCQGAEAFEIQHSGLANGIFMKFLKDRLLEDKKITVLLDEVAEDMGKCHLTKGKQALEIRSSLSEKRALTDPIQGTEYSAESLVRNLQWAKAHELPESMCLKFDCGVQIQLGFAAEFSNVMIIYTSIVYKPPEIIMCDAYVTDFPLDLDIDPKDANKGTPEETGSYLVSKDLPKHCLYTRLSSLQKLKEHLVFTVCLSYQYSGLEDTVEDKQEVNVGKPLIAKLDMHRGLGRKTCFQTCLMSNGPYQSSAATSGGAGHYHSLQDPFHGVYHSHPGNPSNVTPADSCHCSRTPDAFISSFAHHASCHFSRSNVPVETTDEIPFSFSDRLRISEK

Target: C-domain of MALT1 (amino acids 329-824) (Homo sapiens (Human), UniProt Q9UDY8)
Experiment: MALT1 biochemical assay (fluorescence lifetime enzyme activity assay)
Conditions: 60 min preincubation, 2.5 nM enzyme, 1 μM substrate
Experimental: The readout parameter is the increase of fluorescence lifetime over time, proportional to enzyme activity.
The assay employs a short peptide substrate labeled with the single fluorophore PT14 as a fluorescence lifetime probe sensitive to the cleavage state of the substrate (PT14: 6-(9-oxo-9H-acridin-10-yl)-hexanoate, AssayMetrics, UK). […] The assay buffer consists of 200 mM Tris/HCl at pH 7.5, 0.8 M Na citrate, 100 μM EGTA, 100 μM DTT and 0.05% (w/v) CHAPS. […] Test compounds were dissolved in 100% (v/v) DMSO or a mixture containing 90% (v/v) DMSO and 10% (v/v) H2O at a stock concentration of 100 mM. Serial dilutions of test compounds were prepared using either 100% (v/v) DMSO or a mixture containing 90% (v/v) DMSO and 10% (v/v) H2O.
The exponent, p, is the Hill coefficient.

Q: `C[C@@H](O)c1c(NC(=O)Nc2cnc(-n3nccn3)c(C(F)(F)F)c2)cnc2cc(Cl)nn12` [Example 113, (R)-1-(6-(2H-1,2,3-triazol-2-yl)-5-(trifluoromethyl)pyridin-3-yl)-3-(2-chloro-7-(1-hydroxyethyl)pyrazolo[1,5a]pyrimidin-6-yl)urea] was tested. Which IC50 did it give?
A: 11 nM
